Our source for the cell number change and AC50 values is PubChem BioAssay AID2685 (National Center for Advancing Translational Sciences (NCATS), 2010).

The other results are listed elsewhere or left out. These are further read-outs of the screen, such as a control signal, another cell line or another target. No call is given for them. Most of these compounds were active or inconclusive in the main read-out, so they are no random draw. Words in brackets tell the shape of the fitted curve; partial curves, single points and poor fits give uncertain potencies.

This test is described as follows: qHTS Assay for Lipid Storage Modulators in Drosophila S3 Cells.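 For cell number change: cells counted by Cell Tracker Red CMTPX staining in the red channel.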 The conditions noted are these: BODIPY lipid droplet fluorescence, 18-24 h; for cell number change: measured here: cell count max response, cells fed with added oleic acid. In short, it runs like this: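 Drosophila S3 cells loaded with oleic acid (400 uM, as added) and compounds at several concentrations; lipid droplets imaged by 488-nm laser-scanning cytometry, 500–530 nm intensity and object ratio to cell channel. Percent activity normalized to 20 uM Triacsin C.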

Setting [1] is: measured here: cell number channel AC50, cells fed with added oleic acid.
[2] abbreviates: measured here: lipid fluorescence (Fed channel) AC50, cells fed with added oleic acid.

As for `Cc1cc(C(=O)OCC(=O)Nc2cc(S(=O)(=O)N(C)C)ccc2C)c2ccccc2n1`, the cell number change was -1.24%. Moreover, under setting [1], the AC50 is 0.164 µM [rising, partial curve, poor fit].
Take `CC1(C)c2[nH]c3ccccc3c2C[C@H]2C(=O)N(CCCCCO)CC(=O)N21`: the cell number change is -0.708%. Moreover, the AC50 under setting [2] is 0.13 µM [falling, full curve, poor fit].
With `COc1ccc(C2N(C(=O)N(C)C)CCN2S(=O)(=O)c2ccc(OC)cc2)cc1` (centres undefined), the cell number change is 27.4%. Besides, the AC50 under setting [2] is 4.11 µM [rising, single point].
For the molecule `Cc1ccc(-n2nnnc2-c2cccc(C)c2)cc1`, the AC50 under setting [2] was 3.26 µM [rising, partial curve].
As to `COc1cc(C(=O)Oc2ccccc2)ccc1OCc1c(C)noc1C`, the cell number change worked out at 4.05%. For the same molecule, the AC50 under setting [2] was 7.31 µM [falling, partial curve].
`CC(Nc1c[nH]c(=O)[nH]c1=O)c1ccccc1` (centres undefined): the cell number change was 13.7%.
Regarding `CC1CC(C)CN(C(=O)/C=C/c2ccc([N+](=O)[O-])s2)C1` (centres undefined), the cell number change was -69.9%. Besides, under setting [1], the concentration at half-maximal activity (AC50) was 20.6 µM [falling, partial curve, poor fit]. Moreover, the AC50 under setting [2] was 14.6 µM [falling, partial curve, poor fit].
`COc1ccc(OCC(=O)NNC(=O)Nc2cccc(Cl)c2)cc1`: the cell number change came out at 7.92%. Further, the AC50 under setting [2] is 6.51 µM [rising, partial curve, poor fit].
In the case of `CCOc1ccccc1N(C)C(=O)c1cn(CC)c(=O)c2cc(OC)c(OC)cc12`, the cell number change is -1.39%.
Turning to `Cc1cc(C(=O)N(Cc2nnc(-c3ccc(Cl)cc3)o2)C(C)C)c2ccccc2n1`, the cell number change was 24.8%. In addition, the AC50 under setting [1] is 4.11 µM [rising, full curve, poor fit]. Also, under setting [2], the concentration at half-maximal activity (AC50) is 4.61 µM [rising, full curve].
`O=C(NC1CCCC1)NS(=O)(=O)c1ccccc1Cl`: the cell number change was 11.1%.
Turning to `CCOc1ccc(N2C(=O)CS/C2=C(\C(Cl)=C(Cl)Cl)[N+](=O)[O-])cc1`, the cell number change stood at 13.7%. Also, under setting [2], the AC50 is 29.1 µM [falling, partial curve].
As to `Cc1cccc(C(=O)NCc2ccco2)c1`, the cell number change came to 9.49%. In addition, under setting [2], the concentration at half-maximal activity (AC50) is 18.4 µM [rising, single point].
`O=C(NCc1ccccn1)c1ccc2nc(C3CCCCC3)oc2c1`: the cell number change is -16.1%. Besides, under setting [2], the AC50 was 29.1 µM [falling, single point].
For the molecule `CCCNC(=O)c1nc(C)n(-c2cc(Cl)ccc2Cl)n1`, the cell number change is -5.7%.
As for `COc1ccccc1CNC(=O)Cc1c[nH]c2ccccc12`, the cell number change came out at 8.4%. Besides, the AC50 under setting [1] was 0.00461 µM [rising, full curve, poor fit]. Further, the AC50 under setting [2] is 8.2 µM [rising, full curve].
Consider `CCOC(=O)c1nnn(-c2nonc2N)c1COc1ccc(F)cc1`, for which the cell number change amounted to 7.27%.
For the molecule `COc1ccc(/C(N)=N/OC(=O)c2ccc([N+](=O)[O-])c(C)c2)cc1OC`, the cell number change was -12.3%. Besides, the AC50 under setting [2] was 0.00461 µM [falling, full curve, poor fit].
As for `COc1cccc(-n2cc3c(=O)n(C)c(=O)n(C)c3c2)c1`, the cell number change was -0.847%. In addition, the AC50 under setting [2] was 0.291 µM [rising, partial curve, poor fit].
`CCN(Cc1nc2cc(Cl)ccc2c(=O)[nH]1)C(=O)c1cc2c(s1)CCCCC2`: the concentration at half-maximal activity (AC50) was 6.51 µM [falling, single point] under setting [1] and 0.731 µM [rising, single point] under setting [2].
For `Cc1cc(-c2ccccc2)nc(SCc2ccc(C(=O)O)cc2)n1`, the cell number change is -6.96%. Moreover, the AC50 under setting [2] is 0.116 µM [rising, full curve, poor fit].
For `COc1ccc(C2Nc3ccccc3C(=O)N2c2ccc(C)cc2)cc1Cn1cc([N+](=O)[O-])cn1` (centres undefined), the half-maximal activity concentration (AC50) under setting [2] is 0.58 µM [rising, single point].
`CCOc1ccc(NC(=O)c2ccccc2NC(=O)c2cccnc2)cc1`: the cell number change was -5.18%. Moreover, the AC50 under setting [2] is 29.1 µM [falling, partial curve, poor fit].
Turning to `O=C(Nc1ccccn1)C1CCN(S(=O)(=O)c2ccccc2)CC1`, the cell number change was -5.63%. For the same molecule, under setting [2], the AC50 is 3.26 µM [falling, partial curve].
Take `Cc1ccn2cc(-c3ccc(S(=O)(=O)N4CCOCC4)cc3)nc2c1`: the cell number change was -7.69%.
Same read-out and setting: the same measure for `CC1CCCC/C1=N/Nc1ccc([N+](=O)[O-])cc1[N+](=O)[O-]` (centres undefined): -2.96%.
Same read-out and setting: the same measure for `O=C(c1cc(Br)ccc1Cl)N1CCCC1`: 15.9%.
Turning to `CNC(=O)c1c(NC(=O)c2ccco2)sc(C)c1C`, the half-maximal activity concentration (AC50) by setting is: under setting [1], 0.58 µM [falling, single point]; under setting [2], 29.1 µM [falling, single point].
Take `O=C(O)CCCCCCNS(=O)(=O)c1ccccc1`: the cell number change was -6.46%. The half-maximal activity concentration (AC50) under setting [2] was 6.51 µM [falling, partial curve].
Take `O=C1/C(=C/c2ccccn2)SC(=S)N1CCc1ccccc1`: the cell number change was -33.7%. Further, the AC50 under setting [1] was 0.411 µM [falling, full curve, poor fit].
In the case of `Nc1ncc(-n2cncn2)c(-c2ccccc2)n1`, the cell number change was 0.782%.
Consider `CC(C)(C)CC(C)(C)N=C1NS(=O)(=O)c2cc([N+](=O)[O-])ccc21`, for which the cell number change was -13.4%. Moreover, the AC50 under setting [1] is 6.51 µM [rising, single point]. The concentration at half-maximal activity (AC50) under setting [2] was 0.651 µM [falling, full curve].
Turning to `CCOC(=O)c1c(C)[nH]c(C(=O)Cn2nnc(-c3ccc(Cl)cc3)n2)c1C`, the cell number change was -4.22%. For the same molecule, under setting [2], the AC50 is 14.6 µM [falling, single point].
Consider `O=C(CN(Cc1ccco1)C(=O)CNS(=O)(=O)c1ccc(Cl)cc1)NCc1ccco1`, for which the cell number change came to 19.1%. Further, under setting [2], the concentration at half-maximal activity (AC50) was 16.4 µM [rising, partial curve].
On to `COc1cccc2sc3ccc(NCc4ccc5c(c4)OCO5)cc3c(=O)c12`, for which the cell number change came out at 36.6%. The concentration at half-maximal activity (AC50) under setting [1] is 5.17 µM [rising, partial curve, poor fit]. The AC50 under setting [2] is 5.8 µM [falling, full curve].
On to `CCC(=O)N[C@@H]1CC(C(C)(C)NC(=O)CC)CC=C1C` (some centres undefined), for which the cell number change was 0.283%. Besides, under setting [2], the AC50 is 0.731 µM [falling, full curve, poor fit].
Turning to `CCCc1cc(C(=O)Nc2ccc(C)cc2)no1`, the half-maximal activity concentration (AC50) under setting [2] is 0.116 µM [falling, single point].
Regarding `CCN(CC)c1ccc2cc(C(N)=O)/c(=N\NC(=O)c3ccncc3)oc2c1`, the cell number change came out at 28.7%. In addition, the AC50 under setting [1] is 0.164 µM [rising, full curve]. Further, the half-maximal activity concentration (AC50) under setting [2] was 0.146 µM [rising, full curve].
On to `CCOC(=O)c1cc2c(C(F)(F)F)cc(-c3cccnc3)nc2o1`, for which the cell number change is 4.46%. Further, the AC50 under setting [2] was 14.6 µM [rising, single point].
As to `c1ccc2c(Nc3ccc(N4CCOCC4)cc3)nc(N3CCOCC3)nc2c1`, the cell number change is -19.3%.
As for `COC(=O)CNC(c1ccccc1)c1cc(C)ccc1NS(=O)(=O)c1ccc(C)cc1` (centres undefined), the AC50 reads like this: under setting [1], 0.517 µM [rising, partial curve, poor fit]; under setting [2], 1.84 µM [rising, partial curve].
Consider `O=C(c1ccccn1)c1cc2ccccc2n1S(=O)(=O)c1ccccc1`, for which the cell number change came to 12.2%. Besides, the AC50 under setting [2] was 6.51 µM [rising, single point].
Turning to `COc1ccc(CN(C)C(=O)COC(=O)c2ccc3c(c2)OCO3)cc1OC`, the cell number change was -2.92%. In addition, the AC50 under setting [2] was 16.4 µM [falling, single point].
For `Cc1ccc2nc(-c3cccc(Br)c3)cc(C(=O)Nn3cnnc3)c2c1`, the cell number change was -3.38%.
Take `Cc1cccc(C(=O)Oc2ccc(/C=N/NC(=O)Cc3ccc([N+](=O)[O-])cc3)cc2)c1`: the cell number change amounted to 125%. Moreover, under setting [1], the AC50 is 18.4 µM [rising, partial curve]. In addition, the AC50 under setting [2] was 0.517 µM [rising, full curve].
`COc1ccccc1NC(=S)Nc1ccc2cn[nH]c2c1`: the cell number change was -46.5%. The concentration at half-maximal activity (AC50) under setting [1] is 18.4 µM [falling, partial curve, poor fit]. Besides, under setting [2], the AC50 was 20.6 µM [falling, single point].
As to `CC1(c2ccccc2Cl)NC(=O)N(CC(=O)c2ccc3c(c2)OCO3)C1=O` (centres undefined), the cell number change was 48.6%. The AC50 under setting [1] was 29.1 µM [rising, single point].
As for `COc1ccc(OC)c(NC(=O)CN2C(=O)NC3(CCOc4ccccc43)C2=O)c1` (centres undefined), the cell number change was 23.9%. Also, the half-maximal activity concentration (AC50) under setting [2] was 23.1 µM [rising, partial curve].
As for `COc1cccc(C(=O)CSc2nnc(-c3cc(OC)cc(OC)c3)o2)c1`, the cell number change is 2.32%. Also, the AC50 under setting [2] was 20.6 µM [falling, single point].
Regarding `O=C(CN(c1ccccc1)S(=O)(=O)c1ccc(Cl)cc1)Nc1cccnc1`, the cell number change is 5.26%. Moreover, under setting [1], the AC50 was 4.61 µM [rising, partial curve, poor fit].
On to `O=S(=O)(Nc1ccc2c(c1)OCCO2)c1cccc(F)c1`, for which the cell number change came to 12.6%. In addition, under setting [2], the AC50 is 29.1 µM [rising, single point].
On to `C=C(C)CNC(=S)NNC(=O)CCn1c2ccc(Cl)cc2c2cc(Cl)ccc21`, for which the cell number change was -49.9%. Under setting [1], the AC50 was 29.1 µM [falling, single point]. In addition, under setting [2], the AC50 is 29.1 µM [falling, single point].
Take `Cc1ccc(CNC(=O)CCc2nc(-c3cccs3)no2)cc1`: the cell number change came to 5.89%. Besides, under setting [2], the concentration at half-maximal activity (AC50) was 2.91 µM [rising, single point].
Regarding `Cc1ccccc1C(=O)N1CCC(C(=O)N2CCCc3ccccc32)CC1`, the half-maximal activity concentration (AC50) under setting [2] was 0.731 µM [rising, partial curve].
For `NC1=NC(=Nc2ccc(Cl)cc2)c2ccccc21`, the cell number change was found to be 57.6%. The AC50 under setting [1] was 29.1 µM [rising, single point]. The AC50 under setting [2] is 14.6 µM [rising, single point].
Take `Cc1cnc(NC(=O)c2c(Cl)cnn2C)s1`: the cell number change was 49.2%. Further, the AC50 under setting [1] was 11.6 µM [rising, partial curve, poor fit]. In addition, under setting [2], the half-maximal activity concentration (AC50) was 8.2 µM [rising, partial curve].
For `Cc1nc2ccc(NC(=O)c3c(-c4ccccc4)noc3C)cc2s1`, the cell number change was 7.56%. Further, the AC50 under setting [2] was 3.66 µM [rising, full curve, poor fit].
Turning to `COc1ccc(N2CCN(C(=O)c3cc([N+](=O)[O-])ccc3N3CCN(CCO)CC3)CC2)cc1`, the cell number change amounted to 9.68%. Also, the AC50 under setting [2] is 23.1 µM [rising, single point].
Regarding `O=S(=O)(Nc1n[nH]c(C(F)(F)F)n1)c1ccccc1`, the cell number change was determined as 1.49%. Moreover, the half-maximal activity concentration (AC50) under setting [2] was 0.116 µM [rising, full curve, poor fit].

The term AC50 denotes the midpoint of the concentration-response curve, whichever way the signal moves. A high value points to activity only at high concentration.
